## Library screening results

Protein sequences, listed by entry. Tags and fused reporters are not part of them.
UniProt E9BF75, entry or part of it: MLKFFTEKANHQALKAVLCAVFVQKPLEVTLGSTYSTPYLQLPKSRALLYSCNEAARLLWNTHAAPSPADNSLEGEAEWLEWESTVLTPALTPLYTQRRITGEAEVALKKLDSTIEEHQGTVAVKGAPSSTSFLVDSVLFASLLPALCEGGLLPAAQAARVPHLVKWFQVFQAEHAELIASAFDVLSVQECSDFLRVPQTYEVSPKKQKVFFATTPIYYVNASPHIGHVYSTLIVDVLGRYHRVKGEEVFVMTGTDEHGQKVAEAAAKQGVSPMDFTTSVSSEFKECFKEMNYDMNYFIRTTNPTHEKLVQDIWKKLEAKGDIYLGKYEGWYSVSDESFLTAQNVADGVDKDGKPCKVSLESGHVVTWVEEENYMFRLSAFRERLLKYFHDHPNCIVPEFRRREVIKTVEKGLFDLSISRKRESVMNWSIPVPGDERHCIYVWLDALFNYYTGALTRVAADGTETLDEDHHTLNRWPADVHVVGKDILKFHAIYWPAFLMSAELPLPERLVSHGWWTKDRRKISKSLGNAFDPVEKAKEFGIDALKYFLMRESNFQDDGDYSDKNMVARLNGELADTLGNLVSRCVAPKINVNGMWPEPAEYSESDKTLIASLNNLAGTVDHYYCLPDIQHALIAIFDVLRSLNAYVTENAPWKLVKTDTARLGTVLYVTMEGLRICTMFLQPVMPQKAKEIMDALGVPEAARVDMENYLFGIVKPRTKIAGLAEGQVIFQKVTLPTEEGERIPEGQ

Mtb heat-shock: 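Assay on Mycobacterium tuberculosis, filed only as a heat shock assay from Cornell; the read-out is not stated. The concentration is filed as 10 mM, unlikely as a test dose, so the dose is not known. Direction is inferred from retests: higher values go with stronger inhibition. Of about 69,000 compounds tested this way, about 930 (1.4%) reached 50% or more in at least one test.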
LdMetRS: 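Methionyl-tRNA synthetase (putative), Leishmania donovani (UniProt E9BF75). Primary screen of methionyl-tRNA synthetase; the read-out is not stated. The test concentration is not given. The values are filed as inhibition. About 68,000 compounds were tested under these conditions; 0.035% (about 24) showed 50% or more at least once.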
Mtb growth Cornell: 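Whole-cell assay for inhibitors of Mycobacterium tuberculosis growth, labelled Cornell in the record; the read-out is not stated. The concentration is filed as 10 mM, unlikely as a test dose, so the dose is not known. The record gives no direction; compounds strong in two other growth screens of this library score well above the rest, so higher reads as stronger inhibition. Size under these conditions: about 53,000 compounds, about 900 of them at 50% or above in at least one test.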

All values are in %.
The record does not define 0% and 100%; most values in the screen are far below 50% and negative numbers occur (in some assays of this library far below -100).
The compounds are a random part of those screened.
A dash means the value is not listed here; it may have been measured.

SMILES | Mtb heat-shock | LdMetRS | Mtb growth Cornell
Cc1cnn(CC2CN(Cc3nccn3C)CCO2)c1 (stereo not shown) | 13.33% | 10.48% | 17.4%
Cc1cnc(N2CCC3(CC2)C(c2ccccc2)CC(=O)N3C)nc1 (stereo not shown) | -16.15% | 13.77% | 26.18%
Cc1ccc2c(c1)C(NCc1ccccn1)CC2 (stereo not shown) | 89.07% | 11.54% | -3.281%
COCC1CC2(CCN(C(=O)c3ccc(F)c(Cl)c3)CC2)CO1 (stereo not shown) | -27.75% | -1.37% | 1.194%
CC(C)c1ncc(CN2CCC(CO)C2)cn1.O=C(O)CC(O)(CC(=O)O)C(=O)O (stereo not shown) | -9.547% | - | -30.9%
Cc1ccc(CNC(=O)CC2C(=O)NCCN2Cc2ccccc2C)s1 (stereo not shown) | 15.8% | 8.675% | 6.439%
COCCNC(=O)C1CN(Cc2csc(C)n2)Cc2ccnn2C1 (stereo not shown) | - | 9.841% | -
c1cncc(O[C@H]2COCCN(CC3CC3)C2)c1 | 4.24% | 9.831% | 1.166%
Cc1nc(C2CCCN(C(=O)CCCn3cccn3)C2)sc1C (stereo not shown) | 3.889% | 13.07% | -
CNS(=O)(=O)c1ccc(CNC(=O)Nc2cn[nH]c2)cc1 | -11.58% | 22.35% | -
CCc1noc(C2CCCCN2C(=O)c2cc(C)on2)n1 (stereo not shown) | 9.302% | -0.7538% | -
NC(=O)C1CN(C(=O)Nc2ccccc2OCC(F)(F)F)CCO1 (stereo not shown) | -12.53% | 14.44% | 23.06%
O=C(O)C(F)(F)F.[H][C@@]12CCN(Cc3ccco3)[C@]1([H])CC[C@H](COCC(=O)N(C)C)O2 | -18.76% | - | 20.74%
Cn1cnc2c(N3CCOCC3)nc(C3CCNCC3)cc21 | - | 7.407% | -
COC(=O)c1cccc(C(=O)NCc2ccco2)n1 | 13.52% | 11.08% | 19.19%
O=C1N(CC2CC2)CCC12CCCN(c1ncc(F)cn1)C2 (stereo not shown) | - | 10.93% | -
Cc1csc(C2CCCCN2C(=O)Cn2cncn2)n1 (stereo not shown) | 18.63% | 11.85% | 7.993%
O=C1NCCCCC1NS(=O)(=O)N1CCCCC1 (stereo not shown) | 9.309% | 19.61% | -
CN(C)S(=O)(=O)N1C[C@@H](Oc2ccccn2)[C@H]2OCCC[C@H]21 | - | 15.69% | -
O=C1NC(c2cccnc2)=NC12CCN(CCCc1ccccc1)CC2 | 36.46% | 15.86% | -78.2%
CC(C)c1ncc(C(=O)N2CCOCC2CC(=O)c2ccco2)s1 (stereo not shown) | 10.96% | 10.7% | 0.7155%
CCCS(=O)(=O)CCN1CCN(C(C#N)c2ccccc2)CC1 (stereo not shown) | -3.87% | 18.59% | 37.71%
Cc1cc(C)cc(C(=O)N2CCN(C(=O)N(C)C)CC2(C)C)c1 | 20.01% | 14.03% | 26.69%
CCNc1ncc(C(=O)NCCc2ccc(C)c(C)c2)cn1 | 7.892% | 9.045% | -1.672%
CCCN1CCN(C(=O)c2ccn(COc3ccc(F)cc3)n2)CC1 | -21.64% | -3.266% | -
OCC1CCCN(c2ncnc3c2Cc2ccccc2OC3)C1 (stereo not shown) | -4.435% | 11.06% | 8.234%
Cn1nc(CNC(=O)c2ccc(Cl)cc2)c2c1CCOC2 | -1.464% | 17.65% | 18.24%
CNC(=O)[C@@H](c1ccccc1F)N1CCC[C@H]1C(=O)NC1CCCC1.Cl | -12.58% | - | 6.045%
CC(C)CC(NC(=O)Nc1ccc(F)c(Cl)c1)C(=O)O (stereo not shown) | -3.664% | 10.72% | 14.93%
Cc1ccc(F)c(S(=O)(=O)NCCc2nnc[nH]2)c1 | 8.227% | 13.26% | -21.28%
Cc1[nH]c2ccc(CNc3cc(C#N)ccn3)cc2c1C | 31.11% | 20.97% | -4.742%
CN(Cc1nc2ccsc2c(=O)[nH]1)CC1CCCCC1 | 31.07% | 7.888% | 3.727%
CC(C)c1nnc(NCc2cc3n(n2)CCNC3)s1 | -0.7999% | 8.059% | -
Cc1ccccc1N1CC(C)N(Cc2ccc(C)c(F)c2F)CC1=O (stereo not shown) | 2.809% | 4.482% | 1.081%
Cc1cscc1C(=O)Nc1cc(CSCCO)ccn1 | -9.178% | 8.934% | 13.79%
O=C(c1ccc[nH]1)N1CCc2cc(S(=O)(=O)N3CCOCC3)ccc2C1 | -18.11% | 4.05% | -39.33%
Cc1cc(NC(=O)NCc2nccn2C)ccc1OC(C)C | -5.664% | 19.63% | 35.97%
CC(C(=O)Nc1cccc(N2CCCCC2)c1)n1cncn1 (stereo not shown) | -1.85% | 12.42% | -13.44%
O=C(O)C(F)(F)F.O=S(=O)(c1cccs1)N1CCCC2(COCCN(c3cccnc3)C2)C1 (stereo not shown) | 1.74% | - | 26.54%
Cn1cc(C(=O)OC2CN(c3nc4c(C(F)(F)F)cccc4s3)C2)nn1 | 20% | 17.75% | 21.05%
COCc1nn(C)c2c1CN(Cc1cnn(C)c1)CC2.O=C(O)C(F)(F)F | 10.07% | - | -
O=C(Nc1cccc(C(F)(F)F)c1)N1CCN(CCn2ccnc2)CC1 | 12.24% | 11.59% | 98.5%
O=C(O)C(F)(F)F.O=C(O)C(F)(F)F.[H][C@]12CO[C@H](CN(C)Cc3ccco3)[C@@]1([H])CCN(c1cccc(C)n1)C2 | 10.77% | - | 15.53%
COc1cccc(-c2n[nH]cc2CNCC2CCS(=O)(=O)C2)c1 (stereo not shown) | -13.97% | 14.49% | 20.86%
Nc1nc2c(c(NCC(c3cccnc3)N3CCOCC3)n1)CCNC2 (stereo not shown) | -2.418% | 6.422% | -26.24%
CCn1c(CC2CCN(C(=O)c3cc(C(C)C)n[nH]3)CC2)n[nH]c1=O | -2.129% | 16.62% | -3.851%
Cc1ncsc1CNCC(C)c1nc2ccccc2o1 (stereo not shown) | -20.32% | 15.32% | -
Cc1cc(-c2cc(C3CCOC3)c(C#N)c(N)n2)ccc1Cl (stereo not shown) | 18.21% | 6.593% | -
c1cnc(N2C[C@H]3CCN(CC4CC4)C[C@H]3C2)cn1 | - | 12.32% | -
CN(CCCOc1ccccc1)S(=O)(=O)c1cnn(C)c1 | -0.5109% | 17.62% | -11.13%
O=C([C@@H]1Cc2[nH]cnc2CN1C(=O)NC1CCCCC1)N1CCCC1 | -9.872% | 11.54% | -
CC(C)c1nc(C2CCCN2C(=O)c2ccc(C#N)cn2)no1 (stereo not shown) | 21.23% | 12.38% | -
CCCOc1cc(C)ccc1NC(=O)NCCNC(C)=O | -2.265% | -0.2481% | -2.073%
Cc1nn(C)c(C)c1-c1cnc(C2CCCN(S(C)(=O)=O)C2)cn1 (stereo not shown) | 4.311% | 3.236% | 2.146%
O=C(CCN1CCCC1c1ccccn1)N1CCc2ccccc2C1 (stereo not shown) | 14.25% | 24.13% | 13.19%
O=C(N1CCCC1)N1C[C@@H]2CCNC[C@@H]21 | - | 9.444% | -
O=C(Cc1cccs1)N1CCn2cc(Cn3cccn3)nc2C1.O=C(O)C(F)(F)F | -1.79% | - | -13.09%
Cc1ccc(CCN[C@@H]2c3ccccc3C3(CCNCC3)[C@H]2O)s1 | 8.231% | 23.37% | 9.821%
Cc1cnn(CC(=O)N2CCC(Nc3ccc(C)nn3)CC2)c1 | -28.96% | 4.211% | -
Cn1cc(C(=O)CC2CCCN2C(=O)c2coc3ccccc23)cn1 (stereo not shown) | -13.12% | 16.52% | 9.925%
CC(C)c1nc2n(n1)CC(NCc1ncc(-c3ccccc3)o1)CC2 (stereo not shown) | -19.29% | 13.19% | -
c1cnnc(N2CCCC2CNc2ncnc3ccccc23)c1 (stereo not shown) | 13.97% | 11.81% | -
CC(C)Cc1nc(CN2CCC(NC(=O)c3cccs3)CC2)no1 | -7.226% | 13.35% | -20.68%
Cc1ccc(CN2CCCC3(CCCCN3S(C)(=O)=O)C2)s1.O=C(O)C(F)(F)F (stereo not shown) | -13.29% | - | -26.5%
CCS(=O)(=O)CC(=O)NCC1(c2c(F)cccc2F)CCCC1 | -4.386% | 5.645% | -14.32%

Data taken from ChEMBL document CHEMBL3988442, “University of Dundee, Small-Polar-MMV Screening Library” (2021).